The list shows a part of the results. Only hits are listed; about a third recur on repeated control peptides.

Sequences of proteins named here, by UniProt entry; tags and fusion partners are left off.
ANXA11, P50995, UniProt P50995, whole entry: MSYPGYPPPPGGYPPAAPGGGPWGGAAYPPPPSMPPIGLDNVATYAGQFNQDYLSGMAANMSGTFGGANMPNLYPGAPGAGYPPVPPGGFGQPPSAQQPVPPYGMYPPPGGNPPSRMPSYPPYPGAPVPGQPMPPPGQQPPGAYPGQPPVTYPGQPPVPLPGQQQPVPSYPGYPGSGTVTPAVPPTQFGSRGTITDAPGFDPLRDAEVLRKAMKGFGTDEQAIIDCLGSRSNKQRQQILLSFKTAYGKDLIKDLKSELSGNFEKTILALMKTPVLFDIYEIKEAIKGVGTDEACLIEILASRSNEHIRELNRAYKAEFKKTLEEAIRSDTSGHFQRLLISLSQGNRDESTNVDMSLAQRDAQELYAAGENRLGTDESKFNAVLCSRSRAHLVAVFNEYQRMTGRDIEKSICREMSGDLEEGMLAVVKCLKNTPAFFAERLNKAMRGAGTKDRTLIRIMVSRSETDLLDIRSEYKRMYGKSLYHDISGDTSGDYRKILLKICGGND
PSMC5, P62195, UniProt P62195, whole entry: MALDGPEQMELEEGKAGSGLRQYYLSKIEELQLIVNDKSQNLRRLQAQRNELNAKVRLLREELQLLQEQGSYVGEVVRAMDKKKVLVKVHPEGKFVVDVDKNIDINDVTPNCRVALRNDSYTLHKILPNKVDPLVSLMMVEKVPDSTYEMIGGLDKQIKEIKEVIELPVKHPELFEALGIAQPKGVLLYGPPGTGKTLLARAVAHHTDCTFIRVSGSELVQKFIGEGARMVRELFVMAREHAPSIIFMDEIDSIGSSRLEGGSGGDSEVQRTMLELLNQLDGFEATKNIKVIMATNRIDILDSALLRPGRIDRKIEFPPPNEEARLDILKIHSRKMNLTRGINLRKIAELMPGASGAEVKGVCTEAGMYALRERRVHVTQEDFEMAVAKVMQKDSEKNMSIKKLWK
ACTN4, O43707, UniProt O43707, whole entry: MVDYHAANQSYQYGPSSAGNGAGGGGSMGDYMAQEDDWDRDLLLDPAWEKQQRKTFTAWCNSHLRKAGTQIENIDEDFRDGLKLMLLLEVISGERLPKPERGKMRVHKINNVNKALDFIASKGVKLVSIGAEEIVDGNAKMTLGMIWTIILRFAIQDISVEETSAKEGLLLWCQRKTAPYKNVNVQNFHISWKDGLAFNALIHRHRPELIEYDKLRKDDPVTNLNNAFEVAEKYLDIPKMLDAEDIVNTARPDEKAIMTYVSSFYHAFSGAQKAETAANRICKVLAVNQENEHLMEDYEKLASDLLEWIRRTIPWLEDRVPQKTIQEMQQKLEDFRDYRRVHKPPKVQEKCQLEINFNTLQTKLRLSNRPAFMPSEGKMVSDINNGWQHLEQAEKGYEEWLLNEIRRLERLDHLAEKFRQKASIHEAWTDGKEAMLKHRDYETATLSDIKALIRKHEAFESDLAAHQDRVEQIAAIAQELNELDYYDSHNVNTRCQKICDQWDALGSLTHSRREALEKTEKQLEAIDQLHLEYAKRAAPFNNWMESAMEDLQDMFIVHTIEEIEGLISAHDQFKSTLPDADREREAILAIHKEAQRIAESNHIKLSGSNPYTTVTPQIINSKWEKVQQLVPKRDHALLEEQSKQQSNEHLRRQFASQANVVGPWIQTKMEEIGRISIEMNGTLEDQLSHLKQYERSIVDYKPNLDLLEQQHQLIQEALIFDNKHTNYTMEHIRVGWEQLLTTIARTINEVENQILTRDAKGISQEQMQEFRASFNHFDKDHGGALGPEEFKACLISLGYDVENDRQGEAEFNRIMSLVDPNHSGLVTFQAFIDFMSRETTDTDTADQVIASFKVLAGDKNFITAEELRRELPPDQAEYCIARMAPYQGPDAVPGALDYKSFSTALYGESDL
SP1, P08047, UniProt P08047, whole entry: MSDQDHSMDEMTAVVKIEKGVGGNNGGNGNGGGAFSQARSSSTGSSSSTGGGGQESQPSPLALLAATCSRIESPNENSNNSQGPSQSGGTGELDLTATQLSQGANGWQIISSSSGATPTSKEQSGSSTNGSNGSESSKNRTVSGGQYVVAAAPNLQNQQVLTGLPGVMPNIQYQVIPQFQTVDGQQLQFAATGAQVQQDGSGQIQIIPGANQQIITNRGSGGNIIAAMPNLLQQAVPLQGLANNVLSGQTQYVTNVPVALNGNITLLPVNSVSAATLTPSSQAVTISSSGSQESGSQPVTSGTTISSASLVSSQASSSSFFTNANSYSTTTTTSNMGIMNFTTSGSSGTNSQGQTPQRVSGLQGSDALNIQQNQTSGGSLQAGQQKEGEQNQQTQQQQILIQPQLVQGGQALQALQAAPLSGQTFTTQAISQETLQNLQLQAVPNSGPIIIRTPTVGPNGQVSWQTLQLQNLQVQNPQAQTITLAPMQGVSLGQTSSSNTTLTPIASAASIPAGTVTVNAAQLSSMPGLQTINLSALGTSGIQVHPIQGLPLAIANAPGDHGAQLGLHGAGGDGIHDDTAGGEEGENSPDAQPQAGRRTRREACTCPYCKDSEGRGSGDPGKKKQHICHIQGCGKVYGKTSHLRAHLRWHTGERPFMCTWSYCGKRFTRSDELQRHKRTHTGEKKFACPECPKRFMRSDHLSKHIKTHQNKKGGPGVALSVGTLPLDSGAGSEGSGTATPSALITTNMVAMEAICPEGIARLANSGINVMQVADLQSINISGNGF
COX4I1, P13073, UniProt P13073, whole entry: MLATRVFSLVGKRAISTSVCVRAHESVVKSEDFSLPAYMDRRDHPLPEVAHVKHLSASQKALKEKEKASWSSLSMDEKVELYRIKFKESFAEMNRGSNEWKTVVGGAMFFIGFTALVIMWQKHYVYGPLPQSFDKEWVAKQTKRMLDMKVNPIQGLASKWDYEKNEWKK
EIF3K, Q9UBQ5, UniProt Q9UBQ5, whole entry: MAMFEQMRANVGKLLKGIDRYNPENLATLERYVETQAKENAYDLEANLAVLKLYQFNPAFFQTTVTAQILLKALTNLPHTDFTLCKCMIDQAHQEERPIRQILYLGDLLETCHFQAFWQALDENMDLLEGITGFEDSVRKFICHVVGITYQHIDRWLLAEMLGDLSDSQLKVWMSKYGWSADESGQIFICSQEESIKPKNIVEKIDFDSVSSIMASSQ
MYO1C, O00159, UniProt O00159, whole entry: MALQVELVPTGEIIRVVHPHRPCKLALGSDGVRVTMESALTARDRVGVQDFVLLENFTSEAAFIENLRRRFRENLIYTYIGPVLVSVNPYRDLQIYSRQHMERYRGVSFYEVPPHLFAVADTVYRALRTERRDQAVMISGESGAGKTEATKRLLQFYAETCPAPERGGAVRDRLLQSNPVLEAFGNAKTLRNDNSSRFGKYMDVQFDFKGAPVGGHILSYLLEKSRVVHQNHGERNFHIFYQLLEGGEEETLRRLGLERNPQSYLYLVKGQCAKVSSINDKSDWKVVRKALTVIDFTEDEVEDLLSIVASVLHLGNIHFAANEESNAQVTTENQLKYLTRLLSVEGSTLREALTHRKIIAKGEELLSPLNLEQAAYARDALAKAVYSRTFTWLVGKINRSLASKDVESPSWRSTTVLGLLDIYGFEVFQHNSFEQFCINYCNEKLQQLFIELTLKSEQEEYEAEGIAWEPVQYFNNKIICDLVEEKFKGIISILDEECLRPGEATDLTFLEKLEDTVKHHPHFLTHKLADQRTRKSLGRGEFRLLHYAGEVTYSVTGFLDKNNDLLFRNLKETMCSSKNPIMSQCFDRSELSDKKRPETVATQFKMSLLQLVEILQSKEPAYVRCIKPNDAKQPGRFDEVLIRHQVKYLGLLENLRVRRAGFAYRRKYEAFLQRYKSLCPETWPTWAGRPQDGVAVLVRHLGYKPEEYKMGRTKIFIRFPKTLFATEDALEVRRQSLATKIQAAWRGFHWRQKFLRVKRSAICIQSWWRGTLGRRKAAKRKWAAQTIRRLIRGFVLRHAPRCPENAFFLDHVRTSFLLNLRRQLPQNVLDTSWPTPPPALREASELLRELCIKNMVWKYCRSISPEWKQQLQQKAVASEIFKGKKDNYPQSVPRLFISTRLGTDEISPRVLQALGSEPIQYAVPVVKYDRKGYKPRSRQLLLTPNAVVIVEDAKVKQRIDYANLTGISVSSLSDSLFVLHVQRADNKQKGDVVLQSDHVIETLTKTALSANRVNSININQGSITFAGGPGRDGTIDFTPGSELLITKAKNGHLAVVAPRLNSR
NDUFS7, O75251, UniProt O75251, whole entry: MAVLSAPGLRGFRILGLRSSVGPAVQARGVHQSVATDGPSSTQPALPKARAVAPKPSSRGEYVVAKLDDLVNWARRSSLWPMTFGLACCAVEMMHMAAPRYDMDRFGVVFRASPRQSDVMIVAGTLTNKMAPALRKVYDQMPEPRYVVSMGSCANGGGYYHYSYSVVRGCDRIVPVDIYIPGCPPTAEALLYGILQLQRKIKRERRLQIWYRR
TUBGCP2, Q9BSJ2, UniProt Q9BSJ2, whole entry: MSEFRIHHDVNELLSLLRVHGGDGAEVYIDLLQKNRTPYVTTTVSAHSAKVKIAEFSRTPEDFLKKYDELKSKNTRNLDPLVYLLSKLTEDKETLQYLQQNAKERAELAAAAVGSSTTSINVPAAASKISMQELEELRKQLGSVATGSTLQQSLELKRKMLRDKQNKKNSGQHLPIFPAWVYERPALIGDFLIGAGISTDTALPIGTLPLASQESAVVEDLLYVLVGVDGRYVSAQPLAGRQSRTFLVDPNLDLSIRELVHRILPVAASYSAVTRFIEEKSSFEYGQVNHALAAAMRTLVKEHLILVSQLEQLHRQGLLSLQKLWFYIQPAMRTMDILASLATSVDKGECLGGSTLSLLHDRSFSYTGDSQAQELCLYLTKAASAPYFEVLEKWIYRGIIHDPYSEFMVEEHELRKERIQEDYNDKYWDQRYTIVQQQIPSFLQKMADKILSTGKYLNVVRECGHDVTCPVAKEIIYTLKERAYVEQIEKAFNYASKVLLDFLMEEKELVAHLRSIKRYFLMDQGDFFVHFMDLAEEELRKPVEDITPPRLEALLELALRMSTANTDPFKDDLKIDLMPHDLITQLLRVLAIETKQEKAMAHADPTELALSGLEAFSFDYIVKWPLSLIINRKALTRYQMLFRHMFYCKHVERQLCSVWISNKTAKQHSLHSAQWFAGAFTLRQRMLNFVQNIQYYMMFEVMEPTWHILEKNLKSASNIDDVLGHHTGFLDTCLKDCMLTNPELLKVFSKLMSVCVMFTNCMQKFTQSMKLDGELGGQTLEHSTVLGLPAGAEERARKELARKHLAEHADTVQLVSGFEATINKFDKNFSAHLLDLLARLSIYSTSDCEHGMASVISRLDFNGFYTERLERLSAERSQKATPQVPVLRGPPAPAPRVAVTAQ

Common to all, as to test: PRISMA enrichment of interactor (LFQ) in peptide spot vs all other peptide spots (log2 fold change); higher = stronger / more specific binding of the interactor to the peptide
One test deals with ADAR, P55265. Here is the method: (§1)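 PRISMA: 15-aa overlapping tiles (offset 8 aa) of 60 microproteins, plus SOS1/GLUT1 control peptides, were spot-synthesized on cellulose membranes in triplicate. Membranes were incubated with benzonase-treated HEK293T lysate, and bound proteins were identified by LC-MS/MS with LFQ. Enrichment is the log2 fold change of each protein in one spot versus all other spots. Only interactors passing the significance cutoff are listed.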

The target of the next test is ANXA11, P50995. Here is the method: as §1
In a further test the target is C18orf21, Q32NC0. Here is the method:
as §1

Another test deals with C4BPA, P04003. As to the method:
as §1

For another test, the target named is CHCHD3, Q9NX63. As to the method: as §1
A further test has as its target CMC2, Q9NRP2. Here is the method: as §1
A further test concerns the target ENAH, Q8N8S7. As to the method: as §1
Another test addresses PDCD11, Q14690. As to the method: as §1
A further test addresses PPP2R2A, P63151. Here is the method: as §1
In the next test the target is PSMC5, P62195. Here is the method:
as §1

The next test addresses TXNDC12, O95881. Here is the method:
as §1

The target of the next test is USP7, Q93009. Here is the method: as §1
A further test deals with ACTN4, O43707. As to the method:
as §1

Another test deals with CC2D1A, Q6P1N0. Here is the method: as §1
For another test, the target named is HEATR3, Q7Z4Q2. As to the method:
as §1

Another test deals with L2HGDH, Q9H9P8. Here is the method:
as §1

In a further test the target is MRPL44, Q9H9J2. As to the method: as §1
For a further test, the target named is NEPRO, Q6NW34. Here is the method: as §1
In another test the target is NUP58, Q9BVL2. Here is the method: as §1
The next test has as its target PRRC2B, Q5JSZ5. Here is the method: as §1
The target in the next test is QRICH1, Q2TAL8. Here is the method:
as §1

Another test deals with SP1, P08047. Here is the method: as §1
The target in the next test is AP2A1, O95782. As to the method:
as §1

The target of a further test is ATP5PB, P24539. As to the method:
as §1

Another test deals with BOLA2, Q9H3K6. As to the method: as §1
For another test, the target named is BUD23, O43709. Here is the method:
as §1

The target in the next test is CLTCL1, P53675. As to the method:
as §1

The target of another test is COX4I1, P13073. Here is the method:
as §1

For the next test, the target named is CTR9, Q6PD62. Here is the method:
as §1

The target in a further test is DTYMK, P23919. As to the method: as §1
The target in the next test is EIF2B2, P49770. As to the method:
as §1

The next test addresses EIF3K, Q9UBQ5. Here is the method: as §1
A further test addresses FAM136A, Q96C01. Here is the method: as §1
The target of another test is GTF3C4, Q9UKN8. Here is the method:
as §1

For the next test, the target named is HMGN2, P05204. As to the method:
as §1

In another test the target is HMMR, O75330. Here is the method: as §1
The next test has as its target HOMER2, Q9NSB8. As to the method:
as §1

The next test deals with LAMTOR5, O43504. As to the method: as §1
The next test has as its target MAP1B, P46821. As to the method: as §1
The target of a further test is MYO1C, O00159. Here is the method:
as §1

The next test deals with NCOA5, Q9HCD5. Here is the method:
as §1

Another test has as its target NDUFS7, O75251. Here is the method: as §1
A further test concerns the target NUP160, Q12769. Here is the method:
as §1

The next test deals with NUP88, Q99567. As to the method: as §1
In a further test the target is OXSR1, O95747. Here is the method: as §1
The next test has as its target PDLIM1, O00151. As to the method: as §1
The next test addresses PPIL4, Q8WUA2. Here is the method: as §1
Another test has as its target RBMXL1, Q96E39. Here is the method: as §1
In a further test the target is SEC31A, O94979. As to the method: as §1
For the next test, the target named is TUBGCP2, Q9BSJ2. Here is the method:
as §1

The target in a further test is TWNK, Q96RR1. As to the method: as §1
For another test, the target named is ZC3HC1, Q86WB0. As to the method:
as §1

For another test, the target named is hCG_2014768. Here is the method: as §1

RNGLPCMSFSPGGRS [CTD-2366F13.1]: the “PRISMA enrichment of interactor (log2)” value with ADAR, P55265 stood at 6.31; in the test with ANXA11, P50995 it was 4.44; with C18orf21, Q32NC0, 3.94; with C4BPA, P04003 it was 4.25; with CHCHD3, Q9NX63, 5.93; with CMC2, Q9NRP2, 4.96. Moreover, the “PRISMA enrichment of interactor (log2)” value worked out at 4.59 with ENAH, Q8N8S7; 5.8 with PDCD11, Q14690; 4.23 in the test with PPP2R2A, P63151; 5.37 in the test with PSMC5, P62195; 4.08 in the test with TXNDC12, O95881; 5.65 in the test with USP7, Q93009.
Consider RDYKVLVVMVPLVGL [MKKS], for which the “PRISMA enrichment of interactor (log2)” value worked out at 4.77 in the test with ACTN4, O43707; 5.58 with CC2D1A, Q6P1N0; 4.67 with HEATR3, Q7Z4Q2; 4.1 with L2HGDH, Q9H9P8; 5.88 with MRPL44, Q9H9J2; 5.72 with NEPRO, Q6NW34. For the same molecule, the “PRISMA enrichment of interactor (log2)” value came out at 4.31 in the test with NUP58, Q9BVL2; 4.62 with PRRC2B, Q5JSZ5; 5.13 in the test with QRICH1, Q2TAL8; 3.94 with SP1, P08047.
Turning to ISTGLGKQMQSAFQN [RP11-432J24.5_2], the “PRISMA enrichment of interactor (log2)” value with ADAR, P55265 worked out at 5.08; in the test with AP2A1, O95782, 5.27; with ATP5PB, P24539, 4.71; in the test with BOLA2, Q9H3K6, 4.52; in the test with BUD23, O43709, 4.76; with CLTCL1, P53675, 4.33. The “PRISMA enrichment of interactor (log2)” value with COX4I1, P13073 was determined as 7.44; in the test with CTR9, Q6PD62, 7.86; with DTYMK, P23919, 4.77; in the test with EIF2B2, P49770 it was 4.46; in the test with EIF3K, Q9UBQ5, 5.65; in the test with FAM136A, Q96C01 it was 6.82. The “PRISMA enrichment of interactor (log2)” value with GTF3C4, Q9UKN8 is 4.09; in the test with HMGN2, P05204, 4.82; with HMMR, O75330, 4.95; with HOMER2, Q9NSB8 it was 4.03; in the test with LAMTOR5, O43504, 4.37; with MAP1B, P46821, 6.26. Further, the “PRISMA enrichment of interactor (log2)” value in the test with MYO1C, O00159 stood at 4.24; with NCOA5, Q9HCD5 it was 4.12; in the test with NDUFS7, O75251, 4.47; with NUP160, Q12769 it was 4.57; with NUP88, Q99567, 4.98; in the test with OXSR1, O95747, 3.98. The “PRISMA enrichment of interactor (log2)” value in the test with PDLIM1, O00151 came out at 4.11; in the test with PPIL4, Q8WUA2 it was 6.17; in the test with PRRC2B, Q5JSZ5, 4.94; in the test with RBMXL1, Q96E39, 4.25; with SEC31A, O94979, 7.24; with TUBGCP2, Q9BSJ2 it was 4.65. The “PRISMA enrichment of interactor (log2)” value in the test with TWNK, Q96RR1 turned out to be 5.23; in the test with ZC3HC1, Q86WB0, 3.69; with hCG_2014768, 5.65.

Values taken from the supplement of paper PMC10032668.
